Source: PubChem BioAssay AID504786 (Drosophila RNAi Screening Center, 2011)
Aim: 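Fly genes required for HIF-dependent transcription when hypoxia is mimicked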 (primary screen). System: Drosophila S2 cells with a stable HIF luciferase reporter. Knock-down reagent: long dsRNA against Drosophila genes, about 0.2 µg dsRNA per well of a 384-well plate. Timing: three days of knock-down, then 20 h of DFO before reading. Treatment: desferrioxamine (DFO) at 100 µM, an iron chelator that mimics hypoxia, for 20 h. Detection: 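Firefly luciferase driven by the mouse ldh-a hypoxia-response element, measured after 20 h of 100 µM DFO; z-scores per plate, higher means more signal lost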. Reading the numbers: z-score: higher = stronger loss of HIF reporter signal.
The deposit covers about 21,000 reagents; below is a random part of those that have a named target and a result. 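Primary screen; positive scores mean lost reporter signal, so the sign may be inverted from the usual convention.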 A plus sign joins genes that one reagent is predicted to hit.

target | dsRNA | z-score, replicate 1 | z-score, replicate 2 | z-score, replicate 3 | z-score, replicate 4
CG2871 | DRSC18230 | -0.3 | -0.4 | -1 | -0.4
CG18814 | DRSC10347 | -0.1 | -0.2 | – | –
CG31274 + MESK4 | DRSC13202 | -0.1 | -0.1 | – | –
dx (deltex) | DRSC18767 | -0.2 | -0.4 | – | –
IM33 (Immune induced molecule 33) | DRSC00476 | -0.3 | -0.2 | – | –
CG2611 | DRSC02710 | -0.3 | 0 | – | –
CG8509 | DRSC20109 | -0.2 | -0.2 | – | –
nAChRalpha6 (nicotinic Acetylcholine Receptor alpha6) | DRSC01096 | -0.2 | -0.4 | – | –
nAChRalpha6 (nicotinic Acetylcholine Receptor alpha6) | DRSC02738 | -0.4 | -0.7 | – | –
Idua (alpha-L-iduronidase) | DRSC02941 | -0.3 | -0.5 | – | –
CG12520 | DRSC09892 | -0.1 | -0.1 | – | –
stc (shuttle craft) | DRSC03620 | -0.2 | 0 | – | –
car (carnation) | DRSC20316 | -0.2 | 0.1 | – | –
corn (cornetto) | DRSC11021 | -0.3 | 0 | – | –
CG5280 | DRSC10498 | -0.4 | -0.2 | – | –
mthl5 (methuselah-like 5) | DRSC16155 | -0.3 | -0.5 | – | –
CG13299 | DRSC09973 | -0.4 | -0.7 | – | –
CG18131 | DRSC00517 | 0.8 | 2.5 | – | –
CG1316 | DRSC08304 | 0 | -0.2 | – | –
Ubc84D (Ubiquitin conjugating enzyme 84D) | DRSC12610 | -0.4 | -0.8 | – | –
CG31998 | DRSC17137 | -0.2 | -0.4 | – | –
CG31998 | DRSC17138 | -0.2 | -0.5 | – | –
CG15431 | DRSC00446 | -0.1 | 0.2 | – | –
CG17744 | DRSC10286 | -0.4 | -0.8 | – | –
ImpE3 (Ecdysone-inducible gene E3) | DRSC16716 | 0.4 | 0.6 | – | –
Blimp-1 | DRSC10496 | -0.5 | -0.7 | – | –
mas (masquerade) | DRSC08720 | -0.3 | -0.2 | – | –
Cpr64Ab (Cuticular protein 64Ab) | DRSC08461 | -0.4 | -0.2 | – | –
lbe (ladybird early) | DRSC16985 | 1.2 | -0.1 | – | –
CG4766 | DRSC17736 | -0.3 | -0.6 | – | –
CG7963 | DRSC16355 | -0.3 | -0.3 | – | –
Sk2 (Sphingosine kinase 2) | DRSC08556 | 0 | 0 | – | –
dbf (doublefault) | DRSC02570 | -0.1 | 0 | – | –
svr (silver) | DRSC17293 | 0 | -0.2 | – | –
svr (silver) | DRSC18841 | -0.1 | 0.4 | – | –
Kmn1 (kinetochore Mis12-Ndc80 network component 1) | DRSC19666 | 0.2 | 1.1 | – | –
CG17985 | DRSC06702 | -0.3 | -0.3 | – | –
CG5742 | DRSC06949 | -0.3 | -0.5 | – | –
Strump (Strumpellin) | DRSC09872 | -0.2 | -0.1 | – | –
GluRIIC (Glutamate receptor IIC) | DRSC00642 | -0.3 | -0.4 | – | –
mwh (multiple wing hairs) | DRSC08382 | -0.1 | -0.1 | – | –
fs(1)K10 (female sterile (1) K10) | DRSC18775 | -0.2 | -0.2 | – | –
hgo (homogentisate 1,2-dioxygenase) | DRSC03544 | -0.1 | -0.5 | – | –
CG18649 | DRSC10334 | 0.1 | 0.2 | – | –
CG7275 | DRSC10796 | 0.1 | 1.6 | – | –
SMC2 (Structural maintenance of chromosomes 2) | DRSC07544 | -0.4 | -0.3 | – | –
Art1 (Arginine methyltransferase 1) | DRSC16063 | -0.4 | -0.7 | – | –
NaPi-III (Na[+]-dependent inorganic phosphate cotransporter type III) | DRSC10893 | -0.2 | -0.4 | – | –
NaPi-III (Na[+]-dependent inorganic phosphate cotransporter type III) | DRSC10894 | 0.8 | -0.4 | – | –
Larp4B (La-related protein 4B) | DRSC08192 | 0.4 | -0.3 | – | –
CG6638 | DRSC10680 | -0.3 | -0.4 | – | –
Stim (Stromal interaction molecule) | DRSC20158 | -0.4 | 0.8 | – | –
conu (conundrum) | DRSC07810 | -0.1 | 0.2 | – | –
CG12448 | DRSC01967 | -0.4 | 0 | – | –
Ir92a (Ionotropic receptor 92a) | DRSC15111 | 0 | 0.3 | – | –
Or74a (Odorant receptor 74a) | DRSC11245 | -0.1 | 0.4 | – | –

A few values from the list.
Entry of mas (masquerade) [DRSC08720] in “z-score, replicate 2”: -0.2
Under “z-score, replicate 2”, CG12520 [DRSC09892] shows -0.1
CG8509 [DRSC20109], z-score, replicate 1 = -0.2
